This test has as its target cytoplasmic domain of nephrin (yeast two-hybrid construct). The experiment in a line: yeast two-hybrid.

No constants are given. Whether binding was seen depends on the method and setting. Tags and fused reporters may be left off the sequences shown.

B1: Robo2 intracellular domain (human), fused to the transcription activation domain of B42 (receptor, not shown: large carriers)
chain: YWRRKKRKGLSNYAVTFQRGDGGLMSNGSRPGLLNAGDPSYPWLADSWPATSLPVNNSNSGPNEIGNFGRGDVLPPVPGQGDKTATMLSDGAIYSSIDFTTKTSYNSSSQITQATPYATTQILHSNSIHELAVDLPDPQWKSSIQQKTDLMGFGYSLPDQNKGNNGGKGGKKKKNKNSSKPQKNNGSTWANVPLPPPPVQPLPGTELEHYAVEQQENGYDSDSWCPPLPVQTYLHQGLEDELEEDDDRVPTPPVRGVASSPAISFGQQSTATLTPSPREEMQPMLQAHLDELTRAYQFDIAKQTWHIQSNNQPPQPPVPPLGYVSGALISDLETDVADDDADDEEEALEIPRPLRALDQTPGSSMDNLDSSVTGKAFTSSQRPRPTSPFSTDSNTSAALSQSQRPRPTKKHKGGRMDQQPALPHRREGMTDEEALVPYSKPSFPSPGGHSSSGTASSKGSTGPRKTEVLRAGHQRNASDLLDIGYMGSNSQGQFTGEL
As for B1, the binding entry is “no binding”.
